Measured values taken from publication doi:10.1101/2024.08.15.608058.
Results are given in words; binding and its absence hold for the method and conditions named. A result given as binding can be weak or reduced; the word gives no strength.

Amino acid sequences for entries named in this document (tags omitted).
UniProt Q5TEA3: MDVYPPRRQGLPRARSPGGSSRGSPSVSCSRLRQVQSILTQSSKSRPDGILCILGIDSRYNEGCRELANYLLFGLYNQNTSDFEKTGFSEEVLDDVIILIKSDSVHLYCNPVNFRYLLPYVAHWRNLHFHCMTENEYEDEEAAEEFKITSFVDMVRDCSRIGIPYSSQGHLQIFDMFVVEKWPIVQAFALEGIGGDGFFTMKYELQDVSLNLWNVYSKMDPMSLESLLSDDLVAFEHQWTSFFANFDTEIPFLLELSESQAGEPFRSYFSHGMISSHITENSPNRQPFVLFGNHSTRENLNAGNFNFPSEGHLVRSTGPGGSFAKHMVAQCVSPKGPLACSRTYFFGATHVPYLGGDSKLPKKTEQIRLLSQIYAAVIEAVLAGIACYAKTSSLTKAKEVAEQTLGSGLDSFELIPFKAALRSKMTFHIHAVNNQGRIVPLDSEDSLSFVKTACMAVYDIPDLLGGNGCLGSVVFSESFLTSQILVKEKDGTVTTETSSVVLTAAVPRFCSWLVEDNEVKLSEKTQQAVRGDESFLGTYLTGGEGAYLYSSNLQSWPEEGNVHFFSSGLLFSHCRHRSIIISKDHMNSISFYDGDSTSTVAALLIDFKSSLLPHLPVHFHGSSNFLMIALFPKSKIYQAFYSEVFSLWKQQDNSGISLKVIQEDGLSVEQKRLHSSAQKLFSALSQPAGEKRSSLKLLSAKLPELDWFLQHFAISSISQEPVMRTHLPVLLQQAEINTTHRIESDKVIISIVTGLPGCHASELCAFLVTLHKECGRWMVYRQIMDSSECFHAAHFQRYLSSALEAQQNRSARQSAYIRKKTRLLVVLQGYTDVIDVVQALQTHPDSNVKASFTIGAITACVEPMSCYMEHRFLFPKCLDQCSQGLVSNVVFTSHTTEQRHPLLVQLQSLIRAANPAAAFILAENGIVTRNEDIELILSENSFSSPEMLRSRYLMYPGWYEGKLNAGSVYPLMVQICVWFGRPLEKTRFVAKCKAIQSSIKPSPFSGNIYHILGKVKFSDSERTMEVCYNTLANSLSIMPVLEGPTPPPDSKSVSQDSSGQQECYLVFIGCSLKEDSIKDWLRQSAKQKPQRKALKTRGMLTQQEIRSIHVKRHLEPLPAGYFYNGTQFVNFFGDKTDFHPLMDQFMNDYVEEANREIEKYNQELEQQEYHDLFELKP

How the values were obtained:
[1] = target: recombinant human C20orf194/DNAAF9 (human) (UniProt Q5TEA3); experiment: SEC
[2] = target: recombinant human C20orf194/DNAAF9 (human) (UniProt Q5TEA3); experiment: negative-stain electron microscopy
[3] = target: T1, recombinant Tetrahymena thermophila Shulin (Tetrahymena thermophila) (UniProt Q22YU3); experiment: negative-stain electron microscopy
T1 sequence: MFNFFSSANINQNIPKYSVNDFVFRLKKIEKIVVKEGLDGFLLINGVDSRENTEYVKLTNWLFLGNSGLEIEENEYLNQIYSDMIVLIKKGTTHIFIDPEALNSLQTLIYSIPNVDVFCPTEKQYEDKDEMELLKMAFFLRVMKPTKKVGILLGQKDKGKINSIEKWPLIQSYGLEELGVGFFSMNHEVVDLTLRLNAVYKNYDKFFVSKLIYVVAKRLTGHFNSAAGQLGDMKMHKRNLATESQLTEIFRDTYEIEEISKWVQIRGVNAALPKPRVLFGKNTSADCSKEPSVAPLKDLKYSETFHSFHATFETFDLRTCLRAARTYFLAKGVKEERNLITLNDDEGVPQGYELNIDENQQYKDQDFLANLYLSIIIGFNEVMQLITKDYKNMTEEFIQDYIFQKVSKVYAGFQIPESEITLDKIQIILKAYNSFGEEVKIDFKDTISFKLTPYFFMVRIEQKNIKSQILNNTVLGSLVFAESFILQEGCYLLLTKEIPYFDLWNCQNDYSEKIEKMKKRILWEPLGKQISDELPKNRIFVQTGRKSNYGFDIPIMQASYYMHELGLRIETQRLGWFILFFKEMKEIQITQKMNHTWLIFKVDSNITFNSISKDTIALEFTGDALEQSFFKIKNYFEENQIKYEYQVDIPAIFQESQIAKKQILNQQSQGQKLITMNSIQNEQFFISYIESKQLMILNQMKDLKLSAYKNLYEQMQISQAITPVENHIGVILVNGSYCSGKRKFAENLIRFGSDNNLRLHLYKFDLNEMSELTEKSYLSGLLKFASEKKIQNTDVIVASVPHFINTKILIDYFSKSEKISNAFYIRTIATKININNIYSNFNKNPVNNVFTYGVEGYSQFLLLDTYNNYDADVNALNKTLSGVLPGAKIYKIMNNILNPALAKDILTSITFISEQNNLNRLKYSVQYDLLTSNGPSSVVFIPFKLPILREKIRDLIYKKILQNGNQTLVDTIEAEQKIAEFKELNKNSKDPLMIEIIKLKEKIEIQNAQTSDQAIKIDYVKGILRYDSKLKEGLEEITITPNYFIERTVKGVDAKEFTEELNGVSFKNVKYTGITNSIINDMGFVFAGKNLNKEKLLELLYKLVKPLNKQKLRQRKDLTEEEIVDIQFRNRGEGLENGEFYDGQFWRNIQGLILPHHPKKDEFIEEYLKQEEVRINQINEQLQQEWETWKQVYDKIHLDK

[4] = target: recombinant human C20orf194/DNAAF9 (human) (UniProt Q5TEA3); experiment: SEC; remark: listed apart in the source
[5] = target: T1, recombinant Tetrahymena thermophila Shulin (Tetrahymena thermophila); experiment: SEC
[6] = target: T1, recombinant Tetrahymena thermophila Shulin (Tetrahymena thermophila); experiment: SEC; remark: listed apart in the source

Tetrahymena thermophila Arl3 Q70L (GTP mimicking variant) (from UniProt Q229S0)
binding [1]: binds
binding [2]: binds
binding [3]: binds
binding [4]: binds
binding [5]: binds
binding [6]: binds

Tetrahymena thermophila Arl3 T30N (GDP mimicking variant) (from UniProt Q229S0)
binding [1]: binds
binding [4]: no binding (only in the presence of GDP)

Tetrahymena thermophila small GTPase Arl3, wildtype (from UniProt Q229S0)
binding [1]: binds
binding [4]: no binding (only in the presence of GDP)
